Measured values from patent US8658382B2, “Proteins with pteridine glycosyltransferase activity and analysis method using the same” (Inje University Industry-Academic Cooperation Foundation, priority 2008, dated 2014).
At least one compound was matched to its structure with a doubt left. Marks after values point to notes of the source that are not given here.

System: BGluT
Test: Validation of the BGluT assay (authentic tetrahydrobiopterin)
Assay type: biochemical, Synechococcus sp. PCC 7942

`C[C@H](O)[C@H](O)[C@H]1CNc2nc(N)[nH]c(=O)c2N1` [tetrahydrobiopterin] was tested, and the “Biopterin (peak area × 10^−7), original value in parenthesis” value (+BGluT) was “(1.03)^c peak area × 10^−7”, the “Biopterin (peak area × 10^−7), normalized to the equivalent of biopterin” value (+BGluT, original value divided by 1.2) was 0.83 ± 0.11 peak area × 10^−7 and the “Total Biopterin ratio (−BGluT/+BGluT)” value (total biopterin of enzyme-free reaction divided by sum of biopterin and biopterin-glucoside of enzyme reaction) was 0.99. The “Biopterin (peak area × 10^−7)” value (−BGluT) was 0.85 ± 0.0. peak area × 10^−7.
